Measurements as given in US20050187150A1, “Structure-based design and synthesis of FGF inhibitors and FGF modulator compounds” (New York University, priority 2001, published 2005).
These are yes or no findings as the source states them, for the method shown. Some binding calls cover weakened binding; strength is not graded here.

Chains of the proteins cited; added tags and fusions are not shown. Lines headed by an entry give the natural chain unless they say otherwise; changes in a name come on top.
UniProt P11362: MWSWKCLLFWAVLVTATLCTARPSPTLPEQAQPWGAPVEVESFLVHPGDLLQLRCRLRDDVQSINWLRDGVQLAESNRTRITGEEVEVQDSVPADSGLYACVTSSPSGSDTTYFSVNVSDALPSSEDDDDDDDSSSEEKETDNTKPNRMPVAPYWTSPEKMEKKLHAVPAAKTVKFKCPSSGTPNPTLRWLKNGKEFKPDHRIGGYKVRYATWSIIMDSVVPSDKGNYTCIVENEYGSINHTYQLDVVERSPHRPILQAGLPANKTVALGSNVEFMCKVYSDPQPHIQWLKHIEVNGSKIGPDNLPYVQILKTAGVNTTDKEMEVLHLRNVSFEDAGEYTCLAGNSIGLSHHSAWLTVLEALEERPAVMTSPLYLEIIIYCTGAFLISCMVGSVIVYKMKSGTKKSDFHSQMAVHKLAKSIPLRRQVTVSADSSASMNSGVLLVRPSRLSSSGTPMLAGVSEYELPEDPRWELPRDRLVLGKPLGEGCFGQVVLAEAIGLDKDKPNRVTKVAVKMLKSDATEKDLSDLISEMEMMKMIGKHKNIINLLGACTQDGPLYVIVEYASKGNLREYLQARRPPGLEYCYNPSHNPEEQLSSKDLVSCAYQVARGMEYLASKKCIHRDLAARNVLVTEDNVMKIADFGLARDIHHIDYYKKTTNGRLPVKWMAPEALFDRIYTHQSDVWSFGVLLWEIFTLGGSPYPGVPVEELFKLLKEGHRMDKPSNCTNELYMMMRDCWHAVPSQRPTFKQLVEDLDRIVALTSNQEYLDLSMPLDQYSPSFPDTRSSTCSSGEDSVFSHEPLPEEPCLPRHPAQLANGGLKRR
UniProt P09038: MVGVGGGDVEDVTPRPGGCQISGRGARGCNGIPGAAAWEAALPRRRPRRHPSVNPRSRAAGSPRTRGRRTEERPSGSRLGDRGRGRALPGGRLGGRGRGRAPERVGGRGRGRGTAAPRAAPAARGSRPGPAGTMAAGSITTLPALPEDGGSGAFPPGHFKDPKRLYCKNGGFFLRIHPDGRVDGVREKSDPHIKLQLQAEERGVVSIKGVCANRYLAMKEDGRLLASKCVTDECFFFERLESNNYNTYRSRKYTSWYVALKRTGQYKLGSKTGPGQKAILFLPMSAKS

Tests used:
[1] = target: soluble FGFR1 polypeptide D23 (extracellular ligand binding portion of FGFR1, Ig-like domains D2 and D3) (Homo sapiens (Human)) (UniProt P11362); assay: X-ray crystal structure of FGF2-FGFR1-SOS complex, 2.6 A
[2] = target: soluble FGFR1 polypeptide D23 (extracellular ligand binding portion of FGFR1, Ig-like domains D2 and D3) (Homo sapiens (Human)) (UniProt P11362); assay: size exclusion chromatography of purified FGF2-FGFR1 complex, no suramin; a small peak of free FGF from dissociation on dilution
[3] = target: soluble FGFR1 polypeptide D23 (extracellular ligand binding portion of FGFR1, Ig-like domains D2 and D3) (Homo sapiens (Human)) (UniProt P11362); assay: complex formation in solution, complex purified by size exclusion chromatography
[4] = target: soluble FGFR1 polypeptide D23 (extracellular ligand binding portion of FGFR1, Ig-like domains D2 and D3) (Homo sapiens (Human)) (UniProt P11362); assay: size exclusion chromatography (Superdex 200) of purified 1:1 FGF2:FGFR1 complex, no SOS; a small peak of free FGF from dissociation on dilution
[5] = target: soluble FGFR1 polypeptide D23 (extracellular ligand binding portion of FGFR1, Ig-like domains D2 and D3) (Homo sapiens (Human)) (UniProt P11362); assay: size exclusion chromatography; dimerization of FGF2:FGFR1 complexes in the presence of sucrose octasulfate
[6] = target: soluble FGFR1 polypeptide D23 (extracellular ligand binding portion of FGFR1, Ig-like domains D2 and D3) (Homo sapiens (Human)) (UniProt P11362); assay: size exclusion chromatography; dimerization of FGF2:FGFR1 complexes in the presence of suramin
[7] = target: soluble FGFR1 polypeptide D23 (extracellular ligand binding portion of FGFR1, Ig-like domains D2 and D3) (Homo sapiens (Human)) (UniProt P11362); assay: X-ray crystal structure of 2:2:2 FGF2-FGFR1-SOS dimer, 2.6 A

Measured: binding

FGF2 ligand polypeptide (from UniProt P09038 143-288)
binds: [1] | [2] | [3] | [4]

soluble FGFR1 polypeptide D23 (extracellular ligand binding portion of FGFR1, Ig-like domains D2 and D3) (from UniProt P11362 142-365) (receptor)
binds: [5] | [6] | [7]
